These are yes or no findings as the source states them, for the method shown. Some results given as binding are weak or reduced against the parent protein; the word gives no strength.
Experiments:
[1] = molecular target: λD-Base display phage (gpD fused to basic aptamer [Gly-Arg]4) (bacteriophage lambda) (UniProt P03712); experiment: lambda two-hybrid: phage pre-association, lysogen counts
[2] = molecular target: λD-Base display phage (gpD fused to basic aptamer [Gly-Arg]4) (bacteriophage lambda) (UniProt P03712); experiment: lambda two-hybrid co-infection at increasing MOI

By UniProt entry, the sequences of proteins in these tests, tags left out. Where a name states a change or a piece, a line headed by the entry shows the natural chain unless it says otherwise.
UniProt P03712: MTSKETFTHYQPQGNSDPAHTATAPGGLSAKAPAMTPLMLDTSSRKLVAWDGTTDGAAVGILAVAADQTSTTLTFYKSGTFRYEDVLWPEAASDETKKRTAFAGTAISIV

λD-Acid display phage (gpD fused to acidic aptamer [Gly-Glu]4) (from UniProt P03712 1-110)
binding [1]: binds | binding [2]: binds
